Source: PMC9448382, “Fluorosulfate-containing pyrazole heterocycles as selective BuChE inhibitors: structure-activity relationship and biological evaluation for the treatment of Alzheimer’s disease” (Journal of Enzyme Inhibition and Medicinal Chemistry, 2022)

Test system: Aβ1–42
Assay: Brain Aβ1–42 total amount by mouse ELISA kit
Type: in vivo
Details: mice, Aβ1–42 icv model, K3 10 mg/kg po, donepezil 15 mg/kg po
Experimental: In the Aβ1–42 oligomeric damage experiment, all mice were sacrificed after the behavioural research was completed, and the brains were collected to assess the total content of Aβ1–42 using a mouse ELISA kit. Each brain tissue sample was thoroughly homogenised in a grinder with 10 times PBS (pH = 7.4 ± 0.1) before being centrifuged for 5 min at 5000×g. The supernatant was separated for use. The detection technique followed the directions exactly, and the standard curve was created. Brain tissue Aβ1–42 content was calculated according to the linear regression equation. All values were expressed as mean ± SEM using GraphPadPrism8.0 software.

COc1cc2c(cc1OC)C(=O)C(CC1CCN(Cc3ccccc3)CC1)C2 (stereo not shown) [Donepezil, reference compound]
decrease of Aβ1–42 peptides in brain: 14.5%
